# Laboratory results as given in PubChem BioAssay AID1487 (National Center for Advancing Translational Sciences (NCATS), 2009).
# Some of the results follow. Shown are side measurements of this screen, not its main read-out; they come without a call. Compounds called inactive in the main read-out are mostly missing here. The note in brackets gives the kind of curve behind each potency; many fits are weak.
# Assay: qHTS Assay for Modulators of Lamin A Splicing
# Settings: HeLa LMNA splicing GFP/RFP minigene ratio, 48 h
# How it was run: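 S3 HeLa cells stably expressing lamin A-EGFP splicing minigene plus DsRed2, 600 cells/well, 48 h compound exposure at 37C. Laser-scanning cytometry; analysed as GFP (500-530 nm)/RFP (575-640 nm) total intensity ratio; 0.5% DMSO vehicle.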
# [1] = measured here: GFP splicing reporter channel
# [2] = measured here: RFP viability control channel
SMILES,AC50 [1],AC50 [2]
COc1cc(C)ccc1OCCSc1nc2ccc(NC(=O)c3ccco3)cc2s1,"14.1 µM [falling, single point]","0.0224 µM [falling, full curve, poor fit]"
O=C(CN(c1ccccn1)S(=O)(=O)c1ccc(F)cc1)Nc1ccc(F)cc1F,–,"6.31 µM [falling, single point]"
COc1ccc(/C=C2\SC(=O)N(CCNC(=O)C3CCN(S(=O)(=O)c4cccs4)CC3)C2=O)cc1,–,"35.5 µM [rising, single point]"
COC(=O)CCC(=O)OC1(C)C(=O)C2=CN(Cc3ccc4c(c3)OCO4)C(c3ccc(OC)cc3)=CC2=C(Br)C1=O (centres undefined),"0.158 µM [falling, single point]","0.158 µM [falling, single point]"
COC(=O)c1sc(N)c(C(=O)OC)c1COC(=O)[C@@H](NS(=O)(=O)c1cccc(Cl)c1)C(C)C,–,"14.1 µM [rising, single point]"
COc1cccc(NC(=O)Cn2nnc(C(=O)NCc3cccs3)c2N)c1,–,"1.26 µM [falling, full curve]"
CCCSC1=C(C#N)C(c2ccc(OC)cc2)C2=C(CC(C)(C)CC2=O)N1 (centres undefined),–,"35.5 µM [rising, single point]"
CC1CCc2c(sc(NC(=O)Cn3nc(C(F)(F)F)c4c3CCCCC4)c2C#N)C1 (centres undefined),"15.8 µM [falling, single point]","22.4 µM [falling, single point]"
Cc1cc(C(=O)NNC(=O)Nc2cccc(C(F)(F)F)c2)no1,"2.51 µM [rising, partial curve]",–
Cc1nnc(N/N=C/c2cc([N+](=O)[O-])c(N3CCC(C)CC3)cc2N2CCC(C)CC2)n1N,"12.6 µM [rising, single point]",–
c1ccc2c(c1)CCN(C1=Nc3cccc4cccc1c34)C2,"12.6 µM [falling, partial curve, poor fit]","12.6 µM [rising, single point]"
Cc1ccc(S(=O)(=O)NNC(=O)C(=O)NNc2ccccn2)cc1,"31.6 µM [rising, single point]","35.5 µM [rising, single point]"
N/C(=N\OC(=O)c1cc(-c2ccccc2)nc2ccccc12)c1ccncc1,"35.5 µM [falling, single point]","25.1 µM [falling, single point]"
Cc1cc(C)n(-c2ccc(C(=O)Nc3cccc(S(=O)(=O)N(C)C)c3)cc2)n1,–,"3.98 µM [rising, partial curve]"
O=C(CS(=O)(=O)c1c[nH]c2ccccc12)N1CCCc2ccccc21,–,"22.4 µM [rising, partial curve, poor fit]"
CCCCC1(O)CC(C(F)(F)F)=NN1C(=O)COc1ccccc1 (centres undefined),–,"12.6 µM [rising, partial curve]"
Cc1ccc(S(=O)(=O)NCc2ccc(C(=O)N3CCc4ccccc4C3)cc2)cc1,"17.8 µM [rising, single point]","22.4 µM [rising, partial curve]"

SMILES,AC50 [1],AC50 [2]
CCN(CC)C(=O)Cn1c(=O)cc(C)c2c(C)nn(-c3cccc(Cl)c3C)c21,"0.0112 µM [falling, full curve]","0.0224 µM [falling, partial curve, poor fit]"
CCn1c(SCC(=O)c2[nH]c(C)c(C(C)=O)c2C)nnc1-c1cccs1,"2.51 µM [rising, partial curve]","5.62 µM [rising, partial curve]"
COc1cccc(OCC(O)CN2CCN(c3ncccn3)CC2)c1 (centres undefined),"10 µM [rising, single point]",–
Cc1cc(Cl)ccc1OCC(=O)NC1CCCC1,–,"12.6 µM [rising, partial curve]"
COCCCNc1c2c3c(cccc3[nH]c1=O)C(=O)c1ccccc1-2,"8.91 µM [falling, partial curve]","8.91 µM [falling, partial curve]"
COc1cc2[nH]cc(C(=O)NCCc3ccccc3)c(=O)c2cc1OC,–,"15.8 µM [rising, single point]"
O=c1cc(CSc2nnc3ccccn23)c2c(ccc3ccccc32)o1,"35.5 µM [rising, single point]",–
Cc1cc2c(cc1S(=O)(=O)CCC(=O)N1CCC(C)CC1)OCC(=O)N2,"12.6 µM [falling, single point]","35.5 µM [falling, single point]"
S=c1nc(C23CC4CC(CC(C4)C2)C3)nc2sccn12,"15.8 µM [rising, partial curve, poor fit]","15.8 µM [rising, partial curve, poor fit]"
COc1ccc(NC(=O)CN2C(=O)CCn3nc(-c4cccn4C)cc32)cc1,"0.00891 µM [falling, full curve, poor fit]","0.00501 µM [falling, full curve, poor fit]"
Cn1c(=O)cc(SCC(=O)NCCCN2CCN(c3ccc(F)cc3)CC2)c2ccccc21,–,"7.94 µM [rising, partial curve, poor fit]"
COc1ccccc1-n1nnnc1S(=O)(=O)Cc1ccc(Cl)cc1,"8.91 µM [falling, single point]","7.08 µM [falling, single point]"
CC1CCN(C(=S)c2cn(Cc3ccccc3F)c3ccccc23)CC1,"22.4 µM [rising, single point]","35.5 µM [rising, single point]"
O=C(CN1CCC(Cc2ccccc2)CC1)NC(=O)NC1CCCCC1,"4.47 µM [falling, partial curve, poor fit]",–
Cc1cc(C)n(-c2nc(Nc3ccccc3C(F)(F)F)nc(-n3nc(C)cc3C)n2)n1,–,"35.5 µM [rising, partial curve]"
C=CCn1c(O)c(N=NC(=S)Nc2ccc(OC)c(Cl)c2)c2ccccc21,"8.91 µM [rising, partial curve, poor fit]","7.94 µM [rising, partial curve]"

# One compound at a time (already shown). Values in the order: AC50 [1]	AC50 [2]
# `N/C(=N\OC(=O)c1cc(-c2ccccc2)nc2ccccc12)c1ccncc1` in the list: 35.5 µM [falling, single point]	25.1 µM [falling, single point]
# `c1ccc2c(c1)CCN(C1=Nc3cccc4cccc1c34)C2` in the list: 12.6 µM [falling, partial curve, poor fit]	12.6 µM [rising, single point]
